Source: ChEMBL document CHEMBL3988442, “University of Dundee, Small-Polar-MMV Screening Library” (2021).

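Whole-parasite assay of Trypanosoma brucei over 72 hours; the read-out is not stated. Concentration: 30 µM. Direction is inferred from retests: higher values go with stronger inhibition. Values scatter widely below zero; nearly all retest evidence comes from the higher of the two concentrations used. Size under these conditions: about 64,000 compounds, about 940 of them at 50% or above in at least one test.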

Values are the deposited “Percent Effect”, in %.
The controls that fix the scale are not given in the record; negative values are as filed.
Compounds were drawn at random from those tested, without regard to their results.

With CN(C)C(=O)Cn1cc(C(=O)NCCc2ccc(C(F)(F)F)cc2)nn1 the screen gave -69.47%.
With [H][C@]12CC[C@]([H])(CN(CC(=O)N(C)C)C1)N(Cc1ccccc1C#N)C2 the screen gave -62.19%.
With O=S(=O)(CC1CCCCC1)NCc1ccc(O)nc1 the screen gave -3.814%.
With COc1cccc(C(=O)N2CCc3c(nc(N)[nH]c3=O)C2)c1C the screen gave -0.4139%.
With COCC1CN(Cc2ccc(C)o2)Cc2cn(C)nc21.O=C(O)C(F)(F)F.O=C(O)C(F)(F)F (centres unmarked) the screen gave 2.52%.
With CC(=O)c1c(O)ccnc1C(F)(F)F the screen gave -14.65%.
With CCCc1nccn1-c1ccc(C(C)O)cc1 (centres unmarked) the screen gave -22.86%.
With O=C(O)C(F)(F)F.O=C(O)C(F)(F)F.[H][C@@]12CN(Cc3cccs3)CCO[C@]1([H])CN(C1CCOCC1)C2 the screen gave -70.21%.
With COCC(=O)N1CCCC(COc2ccccc2C)C1 (centres unmarked) the screen gave -51.53%.
With CC(c1cccc(-c2ccc(C(=O)O)cc2Cl)c1)N(C)C (centres unmarked) the screen gave -23.75%.
With O=C1COc2cc(C(=O)NS(=O)(=O)c3ccc(F)cc3F)ccc2N1 the screen gave 4.55%.
With O=C(c1ccnc(N2CCOC(c3ccc(Cl)cc3)C2)c1)N1CCCC1 (centres unmarked) the screen gave 11.67%.
With CC(C)c1cc(N2CCCC3(CCN(C)C3)C2)ncn1 (centres unmarked) the screen gave -13.23%.
With O=C(Cn1ccc2cc(Br)ccc21)NCc1ccc(C(=O)O)cc1 the screen gave -42.79%.
With CCc1nc(C)c(C(=O)N(C)Cc2cnc3ccccn23)o1 the screen gave 1.734%.
With O=C(C1CC1)N1C[C@@H](F)[C@@H](OCc2nc3cc(F)ccc3[nH]2)C1 the screen gave -6.031%.
With O=C(O)C(F)(F)F.[H][C@]12OCCC[C@]1([H])N(C(=O)COC)C[C@H]2OCc1cccnc1 the screen gave 40.33%.
With CC(C(=O)NCCOc1ccc2c(c1)OCO2)n1cncn1 (centres unmarked) the screen gave -18.54%.
With Cc1nccc(C(=O)N2CCCC(c3cc(C(F)(F)F)[nH]n3)C2)n1 (centres unmarked) the screen gave 2.435%.
With CS(=O)(=O)NC1CC(=O)N(c2ccccc2Cl)C1 (centres unmarked) the screen gave -1.755%.
With Cn1cc(N2CCC3(CCN(C(=O)[C@H]4CCCO4)C3)C2=O)cn1 (some centres unmarked) the screen gave -12.52%.
With Cc1ccc(C(=O)N2CCN(CCc3cccs3)CC2)c(=O)[nH]1 the screen gave -13.88%.
With CCc1c(C)sc2nc3n(CCN(C)C)nc(SC)n3c(=O)c12 the screen gave -5.018%.
With COc1ccccc1NCC(=O)NCc1ccc(-c2ccn[nH]2)cc1 the screen gave -17.66%.
With Cc1cc(C)n(CC2CCCCN2CC(=O)N(C)Cc2ccco2)n1 (centres unmarked) the screen gave -2.645%.
With CS(=O)(=O)N1Cc2nccn2CC(CN2CCCC2)C1 (centres unmarked) the screen gave -242.6%.
With Cc1nc2c(cc1C(=O)Nc1ccccc1Cl)c(=O)n(C)c(=O)n2C the screen gave -7.469%.
With CC(C)c1ccc(NC(=O)c2ncc(C(N)=O)cc2Cl)cc1 the screen gave -73.11%.
With Cc1nc2n(n1)CC(NCC(=O)Nc1cc(C)on1)CC2 (centres unmarked) the screen gave -9.825%.
With Cc1n[nH]c(C)c1C(N)C(=O)NCCc1csc(C(C)C)n1 (centres unmarked) the screen gave 6.158%.
With COC(=O)[C@@H]1CN(C(=O)c2cscn2)C[C@H]1c1ccc(OC)cc1 the screen gave -8.498%.
With CC(C)(C)c1noc(CCCC(=O)N2CCCC(c3ccn[nH]3)C2)n1 (centres unmarked) the screen gave -6.851%.
With O=C(CSc1ccccc1)N1CCc2c(ncnc2N2CCOCC2)C1 the screen gave -24.73%.
With O=C(c1cc(C2CC2)[nH]n1)N1CCN(Cc2ccccc2)CC1 the screen gave -3.524%.
With Cc1ccc(C(=O)N(CCC#N)Cc2ccccn2)cc1C the screen gave 52.21%.
With CC(C)n1ccc2ccc(C(=O)NC3CN4CCC3CC4)cc21 (centres unmarked) the screen gave -12.75%.
With Fc1ccc(Nc2ccc(C3CCN(Cc4ncc[nH]4)CC3)nc2)nc1 the screen gave 47.99%.
With O=c1[nH]c2c(-c3ccccn3)nsc2c(=O)n1C1CCCCC1 the screen gave -38.55%.
With COCCn1c2c(ccc1=O)CCN(Cc1ccoc1)CC2 the screen gave -9.133%.
With CCc1noc(-c2ccc(SCC(=O)O)nc2)n1 the screen gave -31.98%.
With Cc1cc(N2CCC3(CCCN(CCO)C3=O)C2)nc(C)c1C#N (centres unmarked) the screen gave -51.69%.
With Cc1ncnc2c1CCN(C(=O)CN(C)C)CC2.O=C(O)C(F)(F)F the screen gave -75.62%.
With CO[C@H]1CN(C(C)C)C[C@@H]1NC(=O)Nc1ccc2oc(C)cc2c1 the screen gave -77.41%.
With CCCc1nc(N2CCN(CC)CC2)c2c(n1)c(C)nn2CC the screen gave 10.09%.

5 of the entries, repeated:

With CO[C@H]1CN(C(C)C)C[C@@H]1NC(=O)Nc1ccc2oc(C)cc2c1 the screen gave -77.41%.
With O=c1[nH]c2c(-c3ccccn3)nsc2c(=O)n1C1CCCCC1 the screen gave -38.55%.
With Cc1n[nH]c(C)c1C(N)C(=O)NCCc1csc(C(C)C)n1 (centres unmarked) the screen gave 6.158%.
With COc1cccc(C(=O)N2CCc3c(nc(N)[nH]c3=O)C2)c1C the screen gave -0.4139%.
With CC(C)(C)c1noc(CCCC(=O)N2CCCC(c3ccn[nH]3)C2)n1 (centres unmarked) the screen gave -6.851%.